The values that follow come from patent publication US20170046476A1, “SYSTEMS, APPARATUS, AND METHODS FOR ANALYZING AND PREDICTING CELLULAR PATHWAYS” (priority 2015, published 2017).

The subject of this series is STHdh cell line model of Huntington's disease. Nature of the series: Global (untargeted) lipid profiling by LC-MS, STHdh Q111 vs STHdh Q7 cells. It is filed as cell-based, mouse.
The mark [1] stands for this setting: ratio of LC-MS metabolite feature level, STHdh Q7 vs STHdh Q111 cells, feature (mode_m/z_RT) matched by mass to potential metabolites, P-value ≦0.01.
The mark [2] stands for this setting: ratio of LC-MS feature level in STHdh Q7 vs STHdh Q111 cells, positive mode feature (mode_m/z_RT), mass matched to potential metabolites in the PPMI network.

Take `Oc1ccc2c(c1)OC[C@@]1(O)c3cc4c(cc3O[C@@H]21)OCO4` [6alpha-Hydroxymaackiain]: the Q7/Q111 under setting [1] is given as 6.631.
The same measure, in the same setting: the result for `CCCCCCC1CCCCC(=O)O1` (centres unmarked) [7-Hexyl-2-oxepanone] reads 0.2707; that for `CC(O)CCCCCC(=O)O` (centres unmarked) [7-Hydroxyoctanoic acid], 0.2033.
Same read-out and setting: the result for `CC(C)=CCC[C@@H](C)[C@H]1CC[C@H]2C3=CC=C4C[C@@H](O)CC[C@]4(C)[C@H]3CC[C@]12C` [7-dehydrodesmosterol] reads 0.1032.
Turning to `CCCCC/C=C\C/C=C\CCCCCC(=O)O` [7Z,10Z-Hexadecadienoic acid], the Q7/Q111 under setting [1] stood at 0.3138.
In the case of `CC/C=C\C/C=C\CC1OC1CCCCCCCC(=O)O` (centres unmarked) [9(10)-EpODE], under setting [1], the Q7/Q111 stood at 0.1468.
Same read-out and setting: the result for `CC/C=C\C/C=C\C=C\C(O)CCCCCCCC(=O)O` (centres unmarked) [9-HOTE] reads 0.1468; that for `CCCCC/C=C\C=C\C(=O)CCCCCCCC(=O)O` [9-OxoODE], 0.1468.
Consider `CCCCCC1C=CC(=O)CCCCCCCCC(=O)O1` (centres unmarked) [10-Oxo-11-octadecen-13-olide], for which the Q7/Q111 under setting [1] turned out to be 0.1468.
Still for that read-out and setting: the result for `C=CCCCCCCCCCC(=O)O` [11-Dodecenoic acid] reads 0.2707.
Still for that read-out and setting: the result for `CCCCCCCC/C=C\CCCCCCCCCC(=O)O` [11-cis-eicosenoate] reads 2.548; that for `CCC=CCC1OC1CC=CCCCCCCCC(=O)O` (centres unmarked) [12,13-Epoxy-9,15-octadecadienoic acid], 0.1468.
The same measure, in the same setting: the result for `CC(C=CC1=C(C)CCCC1(C)C)=CC=CC1(C)OC1CO` (centres unmarked) [13,14-epoxy-retinol] reads 2.729; that for `CC/C=C\CC(O)/C=C/C=C\CCCCCCCC(=O)O` (centres unmarked) [13-HOTE], 0.1468.
With `CCCCCC(=O)/C=C/C=C\CCCCCCCC(=O)O` [13-OxoODE], the Q7/Q111 under setting [1] is recorded as 0.1468.
As for `CC(C=CC=C(C)C(O)CO)=CC=C1C(C)=CCCC1(C)C` (centres unmarked) [14-hydroxy-4,14-retro-retinol], the Q7/Q111 under setting [1] is reported as 2.729.
Still for that read-out and setting: the result for `CC[C@@H]1O[C@@H]1C/C=C\C/C=C\CCCCCCCC(=O)O` [15(16)-EpODE] reads 0.1468; that for `CCC1OC1CC=CCC=CCCCCCCCC(=O)O` (centres unmarked) [15,16-Epoxy-9,12-octadecadienoic acid], 0.1468.
On the same count and under the same terms, the result for `CCCCCCCCC=CCCCCCCCCCCCCCC(=O)O` [15-tetracosenoate] reads 4.414.
Same read-out and setting: the result for `CC(O)/C=C\C/C=C\C/C=C\CCCCCCCC(=O)O` (centres unmarked) [17-Hydroxylinolenic acid] reads 0.1468.
On to `CCCCC/C=C\C=C\O/C=C/CCCCCCC(=O)O` [(2′E,4′Z,8E)-Colneleic acid], for which, under setting [1], the Q7/Q111 is given as 0.1468.
On to `CCCCC/C=C(/C=O)CCCC` [(E)-2-Butyl-2-octenal], for which the Q7/Q111 under setting [2] was 7.424.
Turning to `CCCCCC[C@@H](O)C(=O)O` [(R)-2-Hydroxycaprylic acid], the Q7/Q111 under setting [1] came out at 0.2033.
Still for that read-out and setting: the result for `CCCCC[C@@H](O)CC(=O)O` [(R)-3-Hydroxyoctanoic acid] reads 0.2033.
Turning to `O=C1CCCCC/C=C\CCCCCCCCO1` [(Z)-7-Hexadecen-1,16-olide], the Q7/Q111 under setting [1] came out at 0.3138.
In the case of `CCCCC/C=C\C/C=C\CCO` [(Z,Z)-3,6-Dodecadien-1-ol], the Q7/Q111 under setting [2] stood at 7.424.
Consider `CC/C=C\CC1OC1C/C=C\CCCCCCCC(=O)O` (centres unmarked) [A-12(13)-EpODE], for which the Q7/Q111 under setting [1] stood at 0.1468.
On the same count and under the same terms, the result for `C=CCOC(=O)CCCCCCCC` [Allyl nonanoate] reads 0.2707.
For the molecule `C=CCCCCCCCCC(=O)OCC=C` [Allyl undecylenate], under setting [1], the Q7/Q111 is recorded as 0.1814.
The same measure, in the same setting: for `COc1cc(O)cc2occ(-c3ccc(O)cc3O)c(=O)c12` [Barpisoflavone A] the value was 6.631.
For `CCCC(=O)OC1CC2CCC1(C)C2(C)C` (centres unmarked) [Bornyl butyrate], the Q7/Q111 under setting [1] is reported as 0.1814.
Same read-out and setting: the result for `COc1cc(O)c2c(=O)c(-c3ccc(O)cc3O)coc2c1` [Cajanin] reads 6.631; that for `CCCCCCCC/C=C\CCCCCCCCCCCCCC(=O)N[C@@H](CO)[C@H](O)CCCCCCCCCCCCCCC` [Cer(d18:0/24:1(15Z))], 9.407.
Consider `CCCCCCCC/C=C\CCCCCCCCCCCCCC(=O)N[C@@H](CO)[C@H](O)/C=C/CCCCCCCCCCCCC` [Cer(d18:1/24:1(15Z))], for which the Q7/Q111 under setting [1] came to 7.952.
Still for that read-out and setting: for `CCCCCCCCCCCCC/C=C/[C@@H](O)[C@H](CO)NC(=O)CCCCCCCCCCCCCCC` [Ceramide (d18:1/16:0)] the value was 9.456.
Same read-out and setting: for `COc1cc(-c2cc(=O)c3c(O)cc(O)cc3o2)ccc1O` [Chrysoeriol] the value was 6.631; for `CC(=O)OCCC(C)CCC=C(C)C` (centres unmarked) [Citronellyl acetate], 0.2707; for `O=C1CCCCCCCCCCC1` [Cyclododecanone], 7.424.
Same read-out and setting: the result for `O=C1CCCC/C=C/CCCCCCCCCO1` [D6-Ambrettolide] reads 0.3138; that for `CCCCC/C=C\C/C=C\C/C=C\CCCCCCC(=O)O` [Dihomo-gamma-linolenate], 0.3387.
In the case of `CCCCCCCC=CC(=O)OCC` [Ethyl 2-decenoate], the Q7/Q111 under setting [1] came out at 0.2707.
On the same count and under the same terms, for `CCOC(=O)C(O)CC(C)C` (centres unmarked) [Ethyl 2-hydroxy-4-methylpentanoate] the value was 0.2033; for `CCCCCC=CCCC(=O)OCC` [Ethyl 4-decenoate], 0.2707.
Take `CCCCC/C=C\CC/C=C/C(=O)OCC` [Ethyl (2E,6Z)-dodecadienoate]: the Q7/Q111 under setting [1] came to 0.1814.
Still for that read-out and setting: for `CCCCC/C=C\C/C=C\CCCC(=O)OCC` [Ethyl (Z,Z)-5,8-tetradecadienoate] the value was 0.3138.
The same measure, in the same setting: the result for `CCCCCCCCCCCCCC(=O)OC1CCC2(C)C(CCC3(C)C2CCC2C4C(C)C(C)=CCC4(C)C(O)CC23C)C1(C)C` (centres unmarked) [Faradiol myristate] reads 5.92; that for `CCCCCCCCCCCCC/C=C\C(O)C(CO[C@@H]1O[C@H](CO)[C@H](O)[C@H](O)[C@H]1O)NC(=O)CCCCCCCCCCCCCCC` (some centres unmarked) [Galactosylceramide (d18:1/16:0)], 0.3855; that for `CC1CCCC2(C)CCCCC12O` (centres unmarked) [Geosmin], 7.424.
Same read-out and setting: the result for `CCC(CC)C(=O)OC/C=C(\C)CCC=C(C)C` [Geranyl 2-ethylbutyrate] reads 0.3138; that for `CC(C)=CCC/C(C)=C/COC(=O)C(C)C` [Geranyl 2-methylpropanoate], 0.1814; that for `CCCCCC(=O)OC/C=C(\C)CCC=C(C)C` [Geranyl hexanoate], 0.3138.
`CCCCCCCCCCCCCC=CC(O)C(COC1OC(CO)C(O)C(O)C1O)NC(=O)CCCCCCCCCCCCCCC` (centres unmarked) [Glucosylceramide (d18:1/16:0)]: the Q7/Q111 under setting [1] is 0.3855.
Still for that read-out and setting: for `CCCCC/C=C\C/C=C\CCCC(=O)O` [Goshuyic acid] the value was 0.1814; for `CC=CC(C)C(=O)OCCCCCC` (centres unmarked) [Hexyl 2-methyl-3-pentenoate], 0.2707.
The same measure, in the same setting: for `C=CCC(C)C(=O)OCCCCCC` (centres unmarked) [Hexyl 2-methyl-4-pentenoate] the value was 0.2707; for `O=C1CCCCCCC/C=C\CCCCCCO1` [Isoambrettolide], 0.3138; for `CC(C)CCOC(=O)C(C)O` (centres unmarked) [Isoamyl lactate], 0.2033.
Same read-out and setting: the result for `CC(C)C(=O)O[C@@H]1C[C@H]2CC[C@]1(C)C2(C)C` [Isobornyl isobutyrate] reads 0.1814.
On to `COc1ccc(-c2oc3cc(O)cc(O)c3c(=O)c2O)cc1` [Kaempferide], for which the Q7/Q111 under setting [1] is listed as 6.631.
Still for that read-out and setting: for `C=CC(C)(CCC=C(C)C)OC(=O)CCC` (centres unmarked) [Linalyl butyrate] the value was 0.1814; for `C=CC(C)(CCC=C(C)C)OC(=O)CCCCC` (centres unmarked) [Linalyl hexanoate], 0.3138; for `C=CC(C)(CCC=C(C)C)OC(=O)C(C)C` (centres unmarked) [Linalyl isobutyrate], 0.1814.
The same measure, in the same setting: the result for `COc1cc(O)c2c(=O)cc(-c3ccc(O)c(O)c3)oc2c1` [Luteolin 7-methyl ether] reads 6.631; that for `CC=CCCCCCCCC(=O)OC` [Methyl 9-undecenoate], 0.2707.
On the same count and under the same terms, the result for `C=CCCCCCCCCC(=O)OC` [Methyl 10-undecenoate] reads 0.2707.
`CCCCCCCCCCCCC/C=C/[C@@H](O)[C@H](CO)NC(=O)CCCCCCCCCCCCCCCCCCCCCCC` [N-Lignoceroylsphingosine]: the Q7/Q111 under setting [1] stood at 9.407.
Still for that read-out and setting: for `CCCC(=O)OC/C=C(/C)CCC=C(C)C` [Neryl butyrate] the value was 0.1814.
The same measure, in the same setting: the result for `CC1(C)CCC[C@]2(C)[C@H]3CC(=O)O[C@]3(C)CC[C@@H]12` [Norambreinolide] reads 0.2629.
On the same count and under the same terms, the result for `CCCCCCCC(=O)OO` [Peroxyoctanoic acid] reads 0.2033; that for `COc1ccc(-c2coc3cc(O)cc(O)c3c2=O)cc1O` [Pratensein], 6.631; that for `COc1cc(O)cc2c1C(=O)c1c(O)cc(CO)cc1C2=O` [Questinol], 6.631.
As for `C=C(C)CCCC(C)CCOC(C)=O` (centres unmarked) [Rhodinyl acetate], the Q7/Q111 under setting [1] amounted to 0.2707.
Still for that read-out and setting: for `COc1cc(O)c2c(=O)c(-c3ccc(O)c(O)c3)coc2c1` [Santal] the value was 6.631; for `CC1C=C(CCCCCCCCCCCCC=O)C(=O)O1` (centres unmarked) [Squamostanal A], 0.1468.
In the case of `CC(=O)/C=C/C1C(C)(O)C(O)CC2C(C)(C)CCCC21C` (centres unmarked) [Sterebin D], the Q7/Q111 under setting [1] amounted to 0.1468.
Take `CCCCCCCC/C=C\CCCCCCCCCC(=O)OC[C@@H](COC(=O)CCCCCCCCCCCCCCC)OC(=O)CCCCCCCCCCCCCCCCC` [TG(16:0/18:0/20:1(11Z))[iso6]]: the Q7/Q111 under setting [2] is 6.574.
On the same count and under the same terms, for `CCCCCCCC/C=C\CCCCCCCC(=O)O[C@H](COC(=O)CCCCCCCCCCCCCCC)COC(=O)CCCCCCCCCCCCCCCCCCC` [TG(16:0/18:1(9Z)/20:0)[iso6]] the value was 6.574.
